Where a chain is given by its changes, count along the chain named. Construct, isoform or probe ends are uncertain for at least one entry. For some of these results: Weaker means in comparison with the reference protein, sequence or condition of that experiment. Tags and fusion partners may be left off the protein sequences shown. For some of these results: At least one verdict rests on a figure or table, not on a statement of the authors.

Data set [1] deals with T1, NucS R70A (Pyrococcus abyssi) (UniProt Q9V2E8).
T1 sequence (looked up, limits assumed): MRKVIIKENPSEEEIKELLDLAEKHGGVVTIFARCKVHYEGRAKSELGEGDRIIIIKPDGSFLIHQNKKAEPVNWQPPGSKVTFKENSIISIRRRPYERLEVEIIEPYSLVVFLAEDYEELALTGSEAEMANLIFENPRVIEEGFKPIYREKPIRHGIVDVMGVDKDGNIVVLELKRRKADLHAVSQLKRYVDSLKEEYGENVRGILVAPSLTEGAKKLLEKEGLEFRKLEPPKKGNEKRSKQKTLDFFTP
In words: single-molecule TIRF. To be noted: 150 mM NaCl, 23 C, biotin (two at each end of 49N), Imaging buffer B2: 20 mM HEPES, 150 mM NaCl (or 50 mM), 0.1 mg/ml casein Blocking Reagent, pH not given, 23 C without divalent cations, recombinant protein, protein details: Alexa488 label, folded or branched DNA.

The target of data set [2] is T2, NucS (PabNucS) (Pyrococcus abyssi) (UniProt Q9V2E8).
T2 sequence (looked up, limits assumed): T1 sequence (looked up, limits assumed) with A70R
In words: single-molecule TIRF. To be noted: dissociation independent of flap length; biotin; Imaging buffer B2: 20 mM HEPES, 150 mM NaCl (or 50 mM), 0.1 mg/ml casein Blocking Reagent; pH not given; 23 C without divalent cations; recombinant protein; protein details: Alexa488 label; folded or branched DNA.

For the sequence “AGCTACCATGCCTGCACGAATTAAGCAATTCGTAATCATGGTCATAGCT / GATGTCAAGCAGTCCTAAGGAATTCGTGCAGGCATGGTAGCT / AGCTATGATCATGATTACGAATTGCTT [5'-flap (49N/F5D42/D27)]”, in data set [1] (kon 0.15e6 M-1s-1 vs 10e6 for WT, label: Alexa488 on F5D42), the binding result was “binds more weakly”. For the sequence “AGCTACCATGCCTGCACGAATTAAGCAATTCGTAATCATGGTCATAGCT / GATGTCAAGCGATGTCAAGCAGTCCTAAGGAATTCGTGCAGGCATGGTAGCT / AGCTATGATCATGATTACGAATTGCTT [5'-flap, 30 nt flap (F5D52)]”, in data set [2], the binding result was “binds”.

As to “AGCTACCATGCCTGCACGAATTAAGCAATTCGTAATCATGGTCATAGCT / AGCTATGACCATGATTACGAATTGCTTGGAATCCTGACGAACTGTAG / AATTCGTGCAGGCATGGTAGCT [3'-flap (49N/F3D47/D22)]”, the binding result in data set [1] (kon 0.7e6 M-1s-1 (order 3' then 5' as in text) vs 8.5e6 for WT, label: Alexa488 on F3D47) was “binds more weakly”. Take “AGCTACCATGCCTGCACGAATTAAGCAATTCGTAATCATGGTCATAGCT / AGCTATGACCATGATTACGAATTGCTTGGAATCCTGACGAACTGTAGGGAATCCTGA / AATTCGTGCAGGCATGGTAGCT [3'-flap, 30 nt flap (F3D57)]”: in data set [2], the binding result is listed as “binds”.

Source of the values: paper PMC4239081, “Differential Interaction Kinetics of a Bipolar Structure-Specific Endonuclease with DNA Flaps Revealed by Single-Molecule Imaging”.
